Data as given in PubChem BioAssay AID1508597 (Cure First, 2020).
Purpose: 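Survival screen with siRNA in ovarian cancer cells derived from patients, with or without rucaparib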 (primary screen). System: human ovarian carcinoma lines grown from tumours: OCI-P5x (papillary serous) and OCI-C5x (clear cell). Reagent: siRNA pool against human genes, 1.25 pmol siRNA per well. Timing: 72 h or 96 h, depending on the cell culture. Treatment: rucaparib 20 µM (about IC30) or vehicle, present until read-out. Rucaparib or vehicle: Rucaparib. Cell line: OCI-P5x (serous). Detection: 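Luminescent ATP-based viability assay read 72 or 96 h after transfection, depending on culture, given as normalised percent viability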. Direction: viability, normalised: higher = more viable cells remaining. Hit rule: 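Active when normalised viability falls below 80 percent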. Meaning of the calls: active = viability under 80%; inactive = viability 80% or more.
This is a random part of the about 2,100 reagents, in one setting of the screen. 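Calls flag viability under 80% in either arm, not effects specific to rucaparib; the reference for percent is not stated.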 Unmarked entries are inactive. Some reagents were tested in more than one well and are listed for each. No sequences are given here. Not stated in the record: the 100% reference.

| target | technical replicate | viability, normalised (%) |
| --- | --- | --- |
| GALK1 (GeneID 2584) | 1 | 76.4 (active) |
| GALK1 (GeneID 2584) | 2 | 77.5 (active) |
| GALK1 (GeneID 2584) | 3 | 70.2 (active) |
| F7 (GeneID 2155) | 1 | 42.3 (active) |
| F7 (GeneID 2155) | 2 | 65.8 (active) |
| F7 (GeneID 2155) | 3 | 68.9 (active) |
| BMX (GeneID 660) | 1 | 98.1 |
| BMX (GeneID 660) | 2 | 79.2 (active) |
| BMX (GeneID 660) | 3 | 79.9 (active) |
| RIGI (GeneID 23586) | 1 | 84.5 |
| RIGI (GeneID 23586) | 2 | 85.2 |
| RIGI (GeneID 23586) | 3 | 83.2 |
| ZFAT (GeneID 57623) | 1 | 57.4 (active) |
| ZFAT (GeneID 57623) | 2 | 55.1 (active) |
| ZFAT (GeneID 57623) | 3 | 51.4 (active) |
| DHX29 (GeneID 54505) | 1 | 58.9 (active) |
| DHX29 (GeneID 54505) | 2 | 63.1 (active) |
| DHX29 (GeneID 54505) | 3 | 62.7 (active) |
| CHRAC1 (GeneID 54108) | 1 | 76.9 (active) |
| CHRAC1 (GeneID 54108) | 2 | 84.1 |
| CHRAC1 (GeneID 54108) | 3 | 71.4 (active) |
| RECQL (GeneID 5965) | 1 | 83.6 |
| RECQL (GeneID 5965) | 1 | 41.8 (active) |
| RECQL (GeneID 5965) | 2 | 43.3 (active) |
| RECQL (GeneID 5965) | 2 | 75.8 (active) |
| RECQL (GeneID 5965) | 3 | 67.1 (active) |
| RECQL (GeneID 5965) | 3 | 61.3 (active) |

Records listed so far whose gene name begins with C or c:
| target | technical replicate | viability, normalised (%) |
| --- | --- | --- |
| CHRAC1 (GeneID 54108) | 1 | 76.9 (active) |
| CHRAC1 (GeneID 54108) | 2 | 84.1 |
| CHRAC1 (GeneID 54108) | 3 | 71.4 (active) |
